Earlier results in US20170371042A1, “CONTRAST AGENT FOR OPTICAL IMAGING, USE THEREOF AND APPARATUS USING THE SAME” (KYUNGPOOK NATIONAL UNIVERSITY INDUSTRY- ACADEMIC …, priority 2009, published 2017).
At least one compound was matched to its structure with a doubt left.

Details: cited from earlier work

| Structure (SMILES) | Decay mode β^+ (%) | Decay mode β^− (%) | Eβ+ mean | Eβ− mean |
| --- | --- | --- | --- | --- |
| [64Cu+2].[Cl-].[Cl-] [^64Cu, [^64Cu]CuCl2] | (17) % | (39) % | 278 keV | 190 keV |
| [124I-].[Na+] [^124I, [^124I]NaI] | (23) % |  | 819 keV |  |
| [131I-].[Na+] [^131I, [^131I]NaI] |  | (100) % |  | 182 keV |
